# Measurements taken from patent publication US7550484B2, “Chemokine receptor binding heterocyclic compounds with enhanced efficacy” (Genzyme Corporation, priority 2003, dated 2009).
# System: white blood cells, CD34 positive progenitor cells, CFU-GM, BFU-E, CFU-GEMM progenitor cells
# Conditions: prior to and 1, 3, 6, 9 and 24 hours after injection
# Procedure: Five healthy human volunteers having initial white blood cell counts of 4,500-7,500 cells/mm^3 were used in the study. […] Blood samples were obtained via catheter prior to the dose, and at various times up to 24 hours after dosing.
# The blood samples were evaluated for total white blood cells, CD34 positive progenitor cells (via FACS analysis) as a percentage of total white blood cells, as well as the absolute numbers per mL and cycling status of granulocyte macrophage (CFU-GM), erythroid (BFU-E), and multipotential (CFU-GEMM) progenitor cells.
# All progenitor cell results are based on the scoring of 3 culture plates per assay per point.
# For the progenitor cell numbers and cycling status, the numbers of CFU-GM, BFU-E and CFU-GEMM in methylcellulose cultures by stimulation of the cells with 1 Unit (U)/ml recombinant human (rhu) erythropoietin, 100 U/ml rhu granulocyte-macrophage colony stimulating factor (GM-CSF), 100 U/ml rhu interleukin-3 (IL-3) and 50 ng/ml rhu steel factor (SLF=stem cell factor (SCF)). The CFU-GM were also evaluated in agar cultures stimulated with 100 U/ml rhu GM-CSF and 50 ng/ml rhu SLF. For both types of assays, colonies were scored after 14 day incubation in a humidified atmosphere with 5% CO2 and lowered (5%) O2 tension. […]
smiles,measurement,value
"c1cc(CN2CCCNCCNCCCNCC2)ccc1CN1CCCNCCNCCCNCC1 [AMD3100, 1,1′-[1,4-phenylenebis(methylene)]-bis-1,4,8,11-tetra-azacyclotetradecane]",Cycling state of progenitors,slow or non-cycling state
